# Structures can show the parent of a compound that is named as a salt. The list shows a part of the results. The data scatter; read single values as rough.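 Yeast growth was read as optical density at 600 nm. The two-hybrid strains grew without histidine, so growth needed the Pex3–Pex19 binding; a compound counted as trypanosome-selective if it cut growth of the trypanosome-pair strain by more than 65% and the human-pair strain by less than 65%.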
# Tested on: T. brucei Pex3-Pex19 interaction (yeast two-hybrid)
# Experiment: growth inhibition of yeast two-hybrid strain reporting TbPex3-TbPex19 interaction, relative to DMSO; higher = stronger inhibition of T. brucei Pex3-Pex19 interaction / growth
# Settings: 100 µM; 24 h
row,Compound,growth inhibition [%]
1,CCCN1CCC[C@@H]2Cc3n[nH]cc3C[C@H]21 [(-)-Quinpirole hydrochloride],69.1
2,c1ccc2c(c1)[I+]c1ccccc1-2 [Diphenyleneiodonium chloride],68
3,NCC1(CC(=O)O)CCCCC1 [Gabapentin],55
4,NCCc1c[nH]c2ccc(C(N)=O)cc12 [5-Carboxamidotryptamine maleate],59.5
5,CC[C@H]1CN2CCc3cc(OC)c(OC)cc3[C@@H]2C[C@@H]1C[C@H]1NCCc2cc(OC)c(OC)cc21 [Emetine dihydrochloride hydrate],56.4
6,CCCN1CCC[C@H](c2cccc(O)c2)C1 [R(+)-3PPP hydrochloride],70.3
7,"CC(N)C(O)c1ccc(O)c(O)c1 (single isomer, unassigned; (-)) [(-)-alpha-Methylnorepinephrine]",70.1
8,NCCc1ccc(S(=O)(=O)F)cc1 [4-(2-Aminoethyl)benzenesulfonyl fluoride hydrochloride],57.3
9,CCC1(C2=NCCN2)Cc2ccccc2O1 (centres undefined) [Efaroxan hydrochloride],56.3
10,OCc1cnc[nH]1 [4-Imidazolemethanol hydrochloride],66.7
11,CC[C@@H](CO)NC(=O)[C@@H]1C=C2c3cccc4[nH]cc(c34)C[C@H]2N(C)C1 [Methylergonovine maleate],46.3
12,Cc1cc2c(C(C)C)c(O)c(O)c(C=O)c2c(O)c1-c1c(C)cc2c(C(C)C)c(O)c(O)c(C=O)c2c1O [Gossypol],47.7
13,O=C1CC[C@@]2(O)[C@H]3Cc4ccc(O)c5c4[C@@]2(CCN3CC2CC2)[C@H]1O5 [Naltrexone hydrochloride],64.6
14,COc1ccc(C(=O)N2CCCC2=O)cc1 [Aniracetam],65.5
15,C[C@H](N)CN1CCc2ccc(Br)cc21 [VER-3323 hemifumarate salt],61.9
16,C[N+]1(C)C2CCC1CC(OC(=O)c1c[nH]c3ccccc13)C2 (centres undefined) [3-Tropanylindole-3-carboxylate methiodide],37.2
17,CC(Cc1ccc(OCC(=O)O)cc1)NCC(O)c1cccc(Cl)c1 (centres undefined),66.6
18,CCn1cnc2c(Nc3cccc(Cl)c3)nc(N[C@@H]3CCCC[C@@H]3N)nc21,42.5
19,CC(C)NC(C)Cc1ccc(I)cc1 (centres undefined) [Iofetamine hydrochloride],65.6
20,NCCCP(=O)(O)O [3-Aminopropylphosphonic acid],53

# Shown tab-delimited: entries from further up.
row	Compound	growth inhibition [%]
8	NCCc1ccc(S(=O)(=O)F)cc1 [4-(2-Aminoethyl)benzenesulfonyl fluoride hydrochloride]	57.3
16	C[N+]1(C)C2CCC1CC(OC(=O)c1c[nH]c3ccccc13)C2 (centres undefined) [3-Tropanylindole-3-carboxylate methiodide]	37.2

# Next part.

row,Compound,growth inhibition [%]
1,Cc1cccc(C)c1NC(=O)CN1CCCC1=O [Nefiracetam],64.7
2,CN1CC[C@@]2(C)c3cc(OC(=O)Nc4ccccc4)ccc3N(C)[C@@H]12 [Phenserine],60.5
3,Cn1c(CCCC(=O)O)nc2cc(N(CCCl)CCCl)ccc21 [Bendamustine hydrochloride],55.4
4,O=C1/C(=C/c2ccccc2)C[C@@]2(O)[C@H]3Cc4ccc(O)c5c4[C@@]2(CCN3CC2CC2)[C@H]1O5 [BNTX maleate salt hydrate],53.1
5,CCOC(=O)c1ncn2c1[C@@H]1CCCN1C(=O)c1cc(OC)ccc1-2,67.8
6,COC[C@H]1OC(=O)c2coc3c2[C@@]1(C)C1=C(C3=O)[C@@H]2CCC(=O)[C@@]2(C)C[C@H]1OC(C)=O [Wortmannin from Penicillium funiculosum],84.3
7,CN(C)C(=O)Oc1ccc[n+](C)c1 [Pyridostigmine bromide],60
8,C[C@@H]1O[C@H](C[N+](C)(C)C)C[C@H]1O (racemic) [(±)-Muscarine chloride],54.7
9,CC1(C(=O)O)C2CCC(O2)C1(C)C(=O)O (centres undefined) [Cantharidic Acid],61.9
10,c1ccc(C2CC2)c(OCC2=NCCN2)c1 [Cirazoline hydrochloride],67.1
11,"CCCN1CCc2cc(O)cc3c2[C@H]1Cc1ccc(O)c(O)c1-3 [R(-)-2,10,11-Trihydroxy-N-propylnoraporphine hydrobromide]",58.1
12,N=C(N)NN [Aminoguanidine hemisulfate],58.5
13,Cn1cnc(CCN)c1 [1-Methylhistamine dihydrochloride],66.2
14,CC(C)c1cccc(C(C)C)c1O [Propofol],49.5
15,"C[C@@H](N)Cc1cnc[nH]1 [Histamine, R(-)-alpha-methyl-, dihydrochloride]",62.1
16,CCS(=O)(=O)Nc1cccc(C(=C2CCCCC2)c2cnc[nH]2)c1,61
17,O=C(N[C@H]1CN2CCC1CC2)c1cc2ccoc2cn1,56.5
18,CC(=O)NCCc1c[nH]c2ccccc12 [N-Acetyltryptamine],56
19,CNCC(O)c1ccc(O)cc1 (racemic) [(±)-Synephrine],67.6
